According to patent publication US20120190635A1, “SELECTIVE OXIDATION OF C-H BONDS OF MODIFIED SUBSTRATES BY P450 MONOOXYGENASE” (THE REGENTS OF THE UNIVERSITY OF MICHIGAN, priority 2009, published 2012):
Some entries share one result that the patent states for a list of compounds.

Protein sequences, listed by entry. Tags and fused reporters are not part of them. Chains listed by the source or under a name are the forms on record and can include a tag or linker.
UniProt O87605, other isoform, or with tags, fused parts or gaps D50N: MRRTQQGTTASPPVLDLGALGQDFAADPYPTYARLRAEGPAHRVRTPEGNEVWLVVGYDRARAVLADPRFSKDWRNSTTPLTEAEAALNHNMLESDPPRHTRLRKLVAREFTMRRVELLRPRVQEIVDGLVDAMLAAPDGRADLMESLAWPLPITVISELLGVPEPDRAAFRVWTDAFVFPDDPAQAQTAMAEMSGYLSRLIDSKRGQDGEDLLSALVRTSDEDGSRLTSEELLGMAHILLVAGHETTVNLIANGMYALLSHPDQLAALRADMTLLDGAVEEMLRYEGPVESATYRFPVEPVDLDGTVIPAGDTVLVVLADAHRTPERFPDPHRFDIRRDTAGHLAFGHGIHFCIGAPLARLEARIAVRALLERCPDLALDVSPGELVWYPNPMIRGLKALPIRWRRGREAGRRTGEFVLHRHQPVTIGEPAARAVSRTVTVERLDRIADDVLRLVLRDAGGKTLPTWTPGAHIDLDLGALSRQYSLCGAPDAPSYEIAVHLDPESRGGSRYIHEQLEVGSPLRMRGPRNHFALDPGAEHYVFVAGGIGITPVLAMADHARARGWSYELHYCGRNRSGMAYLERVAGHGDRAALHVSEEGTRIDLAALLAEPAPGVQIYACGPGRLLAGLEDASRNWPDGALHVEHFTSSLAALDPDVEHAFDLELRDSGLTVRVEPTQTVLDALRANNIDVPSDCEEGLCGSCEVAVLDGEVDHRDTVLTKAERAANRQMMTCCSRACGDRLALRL

Target: PikCD50N-RhFRED (Streptomyces venezuelae, UniProt O87605, D50N)
Assay type: biochemical

SMILES | hydroxylation by PikC / ability to serve as substrate, in words
CN(C)C1CCCC(OC2CCCCCCCCCCCCCC2)[C@@H]1O (some centres unmarked) [Compound 23] | a number of mono-hydroxylated products were formed
CN(C)CCCOC1CCCCCCCCCCCCCC1 [Compound 24, 3-(cyclopentadecyloxy)-N,N-dimethylpropan-1-amine] | a number of mono-hydroxylated products were formed
